Experimental data: the supplement of paper PMC12067093, “Discovery and optimisation of a covalent ligand for TRIM25 and its application to targeted protein ubiquitination” (Chemical Science, 2025)
The list shows a part of the results.

Compound: CC1Cc2ccccc2N1C(=O)C1CCCN(C1)C(=O)CCl (mixture of isomers) [TRIM25 ligand 11 (diastereomer mixture)]
Assay: probe-labelled cysteine peptide fold change vs DMSO (competition) (log2 fold change); higher = less target engagement (more negative = stronger competition)
Settings: THP-1, incubation time: 4 h
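Further: competitive chemoproteomic profiling in live THP-1 cells with an iodoacetamide desthiobiotin (IA-DTB) probe, comparing probe-labelled peptide intensities in compound-treated cells against DMSO-treated controls.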

Target	probe-labelled cysteine peptide fold change (10 µM)	probe-labelled cysteine peptide fold change (50 µM)
RBBP5_Q15291_73_IISAHIHPVCSLCWSR (UniProt Q15291)	-0.0205	0.278
RCC1L_Q96I51_401_CGLSHFAALTNKGELFVWGK (UniProt Q96I51)	-0.273	-0.19
RBPJ_Q06330_72_FFCPPPCVYLMGSGWK (UniProt Q06330)	0.0316	-0.154
RANBP2_P49792_1549_EGQWDCSSCLVR (UniProt P49792)	0.00669	-0.173
RANGAP1_P46060_303_ELNLSFCEIKR (UniProt P46060)	-0.127	-0.153
RAD54L2_Q9Y4B4_533_QEFSNMFERPILNGQCIDSTPQDVR (UniProt Q9Y4B4)	0.0549	-0.138
RCHY1_Q96PM5_65_EVQCINCEK (UniProt Q96PM5)	0.0321	-0.0427
RBCK1_Q9BYM8_493_WGPGGPGDTSGGCR (UniProt Q9BYM8)	-0.00776	-0.0504
RASAL3_Q86YV0_614_LLCPAILAPSLFGLAPDHPAPGPAR (UniProt Q86YV0)	-0.0801	0.0213
RBX1_P62877_94_QVCPLDNREWEFQK (UniProt P62877)	-0.367	-0.31
RBM5_P52756_766_CQGITAPIEAQVR (UniProt P52756)	-0.041	-0.287
RBM34_P42696_196_TVFVGNLPVTCNK (UniProt P42696)	-0.0442	-0.11
RBM25_P49756_132_LQAFGFCEYK (UniProt P49756)	0.394	0.449
RBBP4_Q09028_167_HPSKPDPSGECNPDLR (UniProt Q09028)	0.111	-0.157

Two records drawn at random from the list so far, as already listed:
Target	probe-labelled cysteine peptide fold change (10 µM)	probe-labelled cysteine peptide fold change (50 µM)
RBX1_P62877_94_QVCPLDNREWEFQK (UniProt P62877)	-0.367	-0.31
RBCK1_Q9BYM8_493_WGPGGPGDTSGGCR (UniProt Q9BYM8)	-0.00776	-0.0504
